According to publication PMC6745501, “Plant photoreceptors and their signaling components compete for COP1 binding via VP peptide motifs” (The EMBO Journal, 2019):

Tested on: COP1 WD40 domain
Assay: Grating-coupled interferometry (GCI) binding kinetics versus the COP1 WD40 domain
Set-up: species or system Arabidopsis
Conditions: ligand COP1 (2000 pg/mm2), analyte in the absence of UV-B, highest concentration 2 μM, 1:1 binding model
Description: For CRY2 activation, proteins were diluted to their final assay concentrations (as indicated in the figure legends) in Eppendorf tubes and exposed to 10 min of fluorescent light on ice.
The Creoptix WAVE system (Creoptix AG), a label‐free surface biosensor, was used to perform GCI experiments. All experiments were performed on 2PCH or 4PCH WAVEchips (quasi‐planar polycarboxylate surface; Creoptix AG). After a borate buffer conditioning (100 mM sodium borate pH 9.0, 1 M NaCl; Xantec), COP1 (ligand) was immobilized on the chip surface using standard amine‐coupling: 7 min activation [1:1 mix of 400 mM N‐(3‐dimethylaminopropyl)‐N′‐ethylcarbodiimide hydrochloride and 100 mM N‐hydroxysuccinimide (both Xantec)], injection of COP1 (10 μg/ml) in 10 mM sodium acetate pH 5.0 (Sigma) until the desired density was reached, and final quenching with 1 M ethanolamine pH 8.0 for 7 min (Xantec). […] Blank injections were used for double referencing and a dimethyl sulfoxide (DMSO) calibration curve for bulk correction. Analysis and correction of the obtained data were performed using the Creoptix WAVEcontrol software (applied corrections: X and Y offset; DMSO calibration; double referencing), and a one‐to‐one binding model or a heterogenous ligand model with bulk correction was used to fit all experiments.

UVR8: recombinant full-length Arabidopsis UV-B photoreceptor UVR8 expressed in insect cells
Rmax, - UV-B: 9.196 pg/mm2
